Measured data: PubChem BioAssay AID504793 (Drosophila RNAi Screening Center, 2011)

- Test: 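Whole-genome screen for parts of the DNA damage checkpoint at G2/M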 (primary screen)
- Cell system: Drosophila S2R+ cells
- Reagents: long dsRNA against Drosophila genes, about 0.25 µg dsRNA per well
- Timing: 4 days of dsRNA, then 4 hours of drug before read-out
- Challenge: doxorubicin 0.5 µM for 4 hours to cause double-strand breaks, in cells also given a low, harmless dose of dsRNA against nbs to sensitise the assay
- Measured: 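Mitotic index as the number of phospho-histone H3-positive cells in each well following doxorubicin, given as raw counts without normalisation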
- Scale: mitotic cells: higher = more cells in mitosis, weaker G2 arrest
- Hit rule: 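a call needs confirmation in secondary tests, with other dsRNAs and a check of mitotic timing without damage, not just a high primary count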
- Calls: active = confirmed in follow-up tests; inactive = not confirmed
In all, the deposit lists about 23,000 reagents; shown is a random part of those that have a named target and a result. In the full data, 62 (0.27%) were called active. 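Calls come from follow-up tests whose scores are not deposited, so confirmed genes may have low counts here; counts are not normalised per plate.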 The raw values are shown without normalisation. Unmarked entries are inactive. The numbers tell different reagents against one gene apart. Names joined by + are all predicted targets of the reagent.

gene	reagent	mitotic cells, replicate 1
Eig71Eb (GeneID 39701)	1	5
CG6153 (GeneID 34675)	1	8
CG10000 (GeneID 43394)	1	10
CG10000 (GeneID 43394)	2	7
pnt (GeneID 42757)	1	3
pnt (GeneID 42757)	2	3
Aprt (GeneID 48224)	1	7
Sec16 (GeneID 32209)	1	10
CG32642 (GeneID 318137)	1	1
CG32642 (GeneID 318137)	2	3
Cyp6g1 (GeneID 36316)	1	7
mu2 (GeneID 38257)	1	3
mu2 (GeneID 38257)	2	4
Atg1 (GeneID 39454)	1	9
Atg1 (GeneID 39454)	2	4
ArfGAP3 (GeneID 40487)	1	6
ArfGAP3 (GeneID 40487)	2	9
sosie (GeneID 42961)	1	9
sosie (GeneID 42961)	2	8
sosie (GeneID 42961)	3	7
VAChT + ChAT	1	8
CG32829 (GeneID 318235)	1	10
CG32829 (GeneID 318235)	2	7
CG11695 (GeneID 32106)	1	8
CG11695 (GeneID 32106)	2	3

6 successive entries from above:
gene	reagent	mitotic cells, replicate 1
CG32642 (GeneID 318137)	1	1
CG32642 (GeneID 318137)	2	3
Cyp6g1 (GeneID 36316)	1	7
mu2 (GeneID 38257)	1	3
mu2 (GeneID 38257)	2	4
Atg1 (GeneID 39454)	1	9

The listing continues:
gene	reagent	mitotic cells, replicate 1
128up (GeneID 36288)	1	9
128up (GeneID 36288)	2	1
Liprin-beta (GeneID 39524)	1	5
Liprin-beta (GeneID 39524)	2	20
Liprin-beta (GeneID 39524)	3	5
CG5928 (GeneID 31539)	1	8
CG5928 (GeneID 31539)	2	1
cerv (GeneID 32492)	1	6
cerv (GeneID 32492)	2	4
CG2964 (GeneID 33475)	1	4
Mov10 (GeneID 36922)	1	9
rb (GeneID 31381)	1	4
rb (GeneID 31381)	2	10
Jon99Cii (GeneID 43544)	1	12
Jon99Cii (GeneID 43544)	2	9
CG33278 (GeneID 2768946)	1	3
CG33278 (GeneID 2768946)	2	9
hiro (GeneID 38083)	1	2
hiro (GeneID 38083)	2	6
TfIIA-S-2 (GeneID 31048)	1	10
